This note sets out measurements from PMC5655547.

By UniProt entry, the sequences of proteins in these tests, tags left out. Where a name states a change or a piece, a line headed by the entry shows the natural chain unless it says otherwise.
UniProt P0CG48: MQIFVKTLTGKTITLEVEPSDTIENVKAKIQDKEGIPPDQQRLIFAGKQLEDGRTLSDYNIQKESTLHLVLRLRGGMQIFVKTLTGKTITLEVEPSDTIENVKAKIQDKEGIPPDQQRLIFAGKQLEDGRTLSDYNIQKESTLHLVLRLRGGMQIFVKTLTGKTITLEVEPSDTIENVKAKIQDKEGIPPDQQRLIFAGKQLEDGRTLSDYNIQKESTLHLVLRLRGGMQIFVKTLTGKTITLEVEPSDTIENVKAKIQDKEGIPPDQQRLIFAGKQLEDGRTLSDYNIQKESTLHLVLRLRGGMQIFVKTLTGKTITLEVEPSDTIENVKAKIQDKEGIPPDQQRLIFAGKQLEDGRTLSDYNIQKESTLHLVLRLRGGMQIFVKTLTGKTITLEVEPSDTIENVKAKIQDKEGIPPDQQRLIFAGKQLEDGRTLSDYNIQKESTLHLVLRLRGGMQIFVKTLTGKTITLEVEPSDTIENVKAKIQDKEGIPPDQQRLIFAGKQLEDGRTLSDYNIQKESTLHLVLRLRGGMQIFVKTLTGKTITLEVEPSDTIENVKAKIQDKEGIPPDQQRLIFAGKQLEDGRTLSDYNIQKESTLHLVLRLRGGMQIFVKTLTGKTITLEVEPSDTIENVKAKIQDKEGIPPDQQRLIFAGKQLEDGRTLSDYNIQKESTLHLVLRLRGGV

Results are given in words; binding and its absence hold for the method and conditions named.

The target of this experiment is U-box of UBE4B (E4B, residues 1079-C), tag removed (human) (UniProt O95155). The experiment is described as follows: NMR titration; 1H-15N HSQC, chemical shift perturbations; 25 mM sodium phosphate, 100 mM NaCl, 5% D2O, 298 K, 600 MHz; both purified.

“K48-diUb (from UniProt P0CG48 1-76; P0CG48 1-74)”: the binding result is on record as “no binding”.
